Reference: PubChem BioAssay AID1224830 (NIAID, 2016)
Assay: 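Regulators of TLR4 signalling towards TNF-alpha in macrophage-like cells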 (primary screen). Cells: human THP-1 monocytic leukaemia cells, TNF dual-luciferase reporter clone, PMA-differentiated to macrophage-like cells. Knock-down reagent: siRNA pool against human genes, 50 nM. Time to read-out: LPS for 4 h, given about 3 days after siRNA transfection. Conditions: bacterial LPS (TLR4 ligand), 10 ng/ml. Measured: 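TNF firefly reporter luminescence divided by renilla, normalised to the plate median, then turned into a robust z-score for each replicate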. Direction: TNF reporter robust z-score: higher = stronger TNF reporter response to LPS. Hit rule: 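Each well counts as active if its z-score is over 2.8 or under -1.5; controls are left without a call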.
Here is an unselected part of about 18,000 reagents tested. About 2,900 of them (16%) count as active. 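Calls are made per well; low scores hint the gene aids the LPS response, high scores that it dampens it.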 Repeated entries: four replicate wells of each siRNA pool. No sequences are given here.

| gene | TNF reporter robust z-score | outcome |
| --- | --- | --- |
| RGR | -0.09 | inactive |
| RGR | 0.02 | inactive |
| RGR | -0.08 | inactive |
| RGR | 2.32 | inactive |
| MYPOP | -1.46 | inactive |
| MYPOP | -0.67 | inactive |
| MYPOP | -0.99 | inactive |
| MYPOP | 0.6 | inactive |
| ZNF514 | -1.29 | inactive |
| ZNF514 | -0.93 | inactive |
| ZNF514 | -1.21 | inactive |
| ZNF514 | -0.75 | inactive |
| HAPLN2 | -0.73 | inactive |
| HAPLN2 | -0.91 | inactive |
| HAPLN2 | -1.14 | inactive |
| HAPLN2 | 0.12 | inactive |
| ZNF444 | -1.58 | active |
| ZNF444 | -1.74 | active |
| ZNF444 | -1.57 | active |
| ZNF444 | -1.63 | active |
| TXNL4B | -1.5 | inactive |
| TXNL4B | -0.45 | inactive |
| TXNL4B | 0.99 | inactive |
| TXNL4B | 1.1 | inactive |
| TLR4 | -2.36 | active |
| TLR4 | -2.31 | active |
| TLR4 | -2.3 | active |
| TLR4 | -2.38 | active |
| VPS9D1 | 1.15 | inactive |
| VPS9D1 | 0.46 | inactive |
| VPS9D1 | 0.52 | inactive |
| AFP | -1.82 | active |
| AFP | -1.58 | active |
| AFP | -0.96 | inactive |
| AFP | -0.33 | inactive |
| ETS2 | -0.4 | inactive |
| ETS2 | -0.09 | inactive |
| ETS2 | -0.21 | inactive |
| ETS2 | 0.12 | inactive |
| PPID | 1.44 | inactive |
| PPID | 0.69 | inactive |
| PPID | 1.98 | inactive |
| PPID | 1.77 | inactive |
| PHB2 | -1.22 | inactive |
| PHB2 | -0.66 | inactive |
| PHB2 | -0.74 | inactive |
| PHB2 | -0.75 | inactive |
| ZNF101 | 1.46 | inactive |
| ZNF101 | 3.26 | active |
| ZNF101 | 1.05 | inactive |
| ZNF101 | 3.55 | active |
| CDH4 | 0.21 | inactive |
| CDH4 | -0.2 | inactive |
| CDH4 | -0.11 | inactive |
| CDH4 | 0.06 | inactive |
| PCDHA10 | 0.73 | inactive |
| PCDHA10 | 1.11 | inactive |
| PCDHA10 | 0.34 | inactive |
| PCDHA10 | 0.11 | inactive |
| MRPS5 | -0.65 | inactive |
| MRPS5 | 0.04 | inactive |
| MRPS5 | -0.27 | inactive |
| MRPS5 | 0.12 | inactive |
| FRY | -1.03 | inactive |
| FRY | -1.24 | inactive |
| FRY | -0.69 | inactive |
| FRY | -1.19 | inactive |
| CCDC43 | 2.73 | inactive |
| CCDC43 | 1.94 | inactive |
| CCDC43 | 1.03 | inactive |
| CCDC43 | 1.93 | inactive |
| TTC9C | 0.37 | inactive |
| TTC9C | -0.66 | inactive |
| TTC9C | -1.06 | inactive |
| TTC9C | -0.46 | inactive |
| PGGT1B | -0.84 | inactive |
| PGGT1B | -0.72 | inactive |
| PGGT1B | -0.42 | inactive |
| PGGT1B | -0.68 | inactive |
| XRCC2 | 0.25 | inactive |
| XRCC2 | 1.82 | inactive |
| XRCC2 | 1.91 | inactive |
| XRCC2 | 2.74 | inactive |
| ZNG1C | 1.27 | inactive |
| ZNG1C | 0.74 | inactive |
| ZNG1C | 1.46 | inactive |
| ZNG1C | 2.8 | active |
| SRPK2 | -0.62 | inactive |
| SRPK2 | -0.1 | inactive |
| SRPK2 | -1.49 | inactive |
| SRPK2 | -1.2 | inactive |
| MUCL1 | -0.59 | inactive |
| MUCL1 | -0.09 | inactive |
| MUCL1 | -0.52 | inactive |
| MUCL1 | -0.29 | inactive |
| SEC11A | 0.39 | inactive |
| SEC11A | -0.33 | inactive |
| SEC11A | -0.86 | inactive |
| SEC11A | 0.43 | inactive |
| GPSM1 | 1.95 | inactive |
| GPSM1 | 0.76 | inactive |
| GPSM1 | 2.04 | inactive |
| GPSM1 | 2.02 | inactive |
| SERPINA12 | -0.28 | inactive |
| SERPINA12 | -0.1 | inactive |
| SERPINA12 | -0.31 | inactive |
| SERPINA12 | -0.97 | inactive |
| KLF16 | -0.54 | inactive |
| KLF16 | -0.31 | inactive |
| KLF16 | -0.22 | inactive |
| KLF16 | -0.68 | inactive |
